Laboratory results: US20210263033A1
No constants are given. Whether binding was seen depends on the method and setting. Binding seen in cells or lysates may run through a third protein. These calls come from enrichment with a bait or labelling near it, and not all partners need be listed.

Key:
[1] = target: T1, Heat shock protein (HSPD1), mitochondrial, Homo sapiens (CH60_HUMAN) (Homo sapiens) (UniProt P10809); assay: pulldown with biotinylated phage on streptavidin Dynal magnetic beads, SDS-PAGE with silver staining, mass spectrometry
T1 sequence: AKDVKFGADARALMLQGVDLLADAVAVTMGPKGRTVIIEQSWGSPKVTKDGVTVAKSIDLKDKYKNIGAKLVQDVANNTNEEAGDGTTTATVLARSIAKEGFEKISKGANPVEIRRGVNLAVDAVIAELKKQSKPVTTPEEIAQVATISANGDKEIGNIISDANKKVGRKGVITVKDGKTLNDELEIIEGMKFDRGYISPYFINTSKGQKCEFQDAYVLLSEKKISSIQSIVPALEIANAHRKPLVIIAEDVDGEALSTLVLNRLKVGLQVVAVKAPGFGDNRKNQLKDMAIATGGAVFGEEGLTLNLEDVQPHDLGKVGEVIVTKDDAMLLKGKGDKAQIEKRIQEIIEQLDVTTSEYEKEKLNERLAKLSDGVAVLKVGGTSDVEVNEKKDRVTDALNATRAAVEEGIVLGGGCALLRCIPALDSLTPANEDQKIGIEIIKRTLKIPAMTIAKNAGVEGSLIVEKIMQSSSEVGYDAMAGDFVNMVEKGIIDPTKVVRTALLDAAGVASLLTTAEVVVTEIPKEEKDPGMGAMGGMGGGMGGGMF

[2] = target: T1, Heat shock protein (HSPD1), mitochondrial, Homo sapiens (CH60_HUMAN) (Homo sapiens); assay: pulldown with biotinylated phage from MDA-MB-231 cells, mass spectrometry identification

LGLRGSL (peptide, not shown: large carriers) [E11 phage (the phage bearing the peptide LGLRGSL (SEQ ID NO: 1))]
binding [1]: binds
binding [2]: binds
